Measurements reported in the supplement of paper PMC8426693.
This is one part of the list.

Key:
Test in all cases: NMR binding call after quantification (hit when 2 of 3 NMR criteria are met) (binary (1 = binding, 0 = not binding)); higher = binding
Settings in all cases: RNA concentration 10 µM; fragment concentration 200 µM; 293 K
SARS-CoV-2 5'-UTR RNA = test system: SARS-CoV-2 5'-UTR RNA
SARS-CoV-2 5_SL1 RNA = test system: SARS-CoV-2 5_SL1 RNA
SARS-CoV-2 5_SL1234 RNA = test system: SARS-CoV-2 5_SL1234 RNA
SARS-CoV-2 5_SL2+3 RNA = test system: SARS-CoV-2 5_SL2+3 RNA
SARS-CoV-2 5_SL4 RNA = test system: SARS-CoV-2 5_SL4 RNA
SARS-CoV-2 5_SL5 RNA = test system: SARS-CoV-2 5_SL5 RNA
SARS-CoV-2 5_SL5a RNA = test system: SARS-CoV-2 5_SL5a RNA
SARS-CoV-2 5_SL5b+c RNA = test system: SARS-CoV-2 5_SL5b+c RNA
SARS-CoV-2 5_SL5stem RNA = test system: SARS-CoV-2 5_SL5stem RNA
SARS-CoV-2 5_SL6 RNA = test system: SARS-CoV-2 5_SL6 RNA

Measured: NMR binding call

Cc1ccc(-c2nc(N)sc2C)cc1C
0: all assays above

CCOc1ccc(C(=O)Nc2cc(C)on2)cc1
0: all assays above

COc1ccc(C(=O)Nc2ccccc2F)cc1
0: all assays above

COC(=O)Nc1nnc(CC2CCCC2)s1
0: all assays above

CN(C)C(=O)C1(C(=O)O)CC1
0: all assays above

Cc1nsc(N2CCOC(C)C2C)n1 (stereo not given)
0: all assays above

O=C(COc1ccc(F)cc1)N1CCCC1
0: all assays above

CCC(=O)Nc1nnc(C2CCCCC2)s1
0: all assays above

CCC(=O)Nc1ccc2[nH]c(=O)[nH]c2c1
0: all assays above

CCS(=O)(=O)N1CCC(C(=O)O)CC1
0: all assays above

CS(=O)(=O)NCCc1ccc(F)cc1
0: all assays above

CN1CCN(C(=O)Nc2ccc(F)cc2)CC1
0: all assays above

CCOC(=O)c1sc(-c2cnccn2)nc1C
0: all assays above

O=C(Nc1ccc(F)cc1)Nc1cccc(O)c1
0: all assays above

CNS(=O)(=O)c1cccc(C)c1F
0: all assays above

2 consecutive entries from above, for reference:
CN1CCN(C(=O)Nc2ccc(F)cc2)CC1
0: all assays above

CCOC(=O)c1sc(-c2cnccn2)nc1C
0: all assays above
